{"source": "patent US5698674A", "about": "“Triheterocyclic peptides capable of binding the minor and major grooves of DNA” (The Regents of the University of California, priority 1994, dated 1997)", "test_system": "d(GGCGCAAATTTGGCGG)(SEQ ID NO:1)/d(CCGCCAAATTTGCGCC)(SEQ ID NO:2)", "experiment": "Hoechst 33258 (Ht) fluorescence competition, equilibrium association constants with hexadecamer duplex", "format": "binding", "details": "pH 7.0, 35° C; mean ± SD", "procedure": "Equilibrium constants for the association of 6a and 6b with oligomeric DNA were assessed by the complexing of tren-microgonotropen-a and -b to the hexadecamer d(GGCGCAAATTTGGCGG)(SEQ ID NO:1)/d(CCGCCAAATTTGCGCC)(SEQ ID NO:2) in aqueous solutions at 35° C. (2.8 mL solutions containing 0.01M phosphate buffer, pH 7.0, and 0.01M NaCl).\nThese reactions were followed by the competition of the dye Hoechst 33258 (Ht) with 6a and 6b for the A3 T3 minor groove binding site (an extension of Ht alone binding to dsDNA). The concentrations of 6a and 6b were confirmed by ^1 H NMR peak integration of resonances with those of an equivalent concentration of mesitoate.\nAs shown previously (Browne, K. A.; He, G.-X.; Bruice, T. C. J. Am. Chem. Soc. 1993, 115, 7072), monitoring the increase in fluorescence intensity as the association of Ht with the hexadecamer displaces prebound nonfluorescent ligands is an excellent method for determining equilibrium binding constants. […]\nEq 1, derived from FIG. 17, relates each of the equilibrium binding constants, the total fluorescence (Σθ), and [L] in terms of fluorescence (F) and [Ht]. […] The values of log KHt1 =7.6 and log KHt2 =9.1 used were determined from a reevaluation of data previously collected (Browne, et al., 1993, supra) and are very close to the previously determined values. […]", "note": "“And” between values parts separate entries of the source, which are not always exact repeats. Equal values may be shown once.", "data": [{"smiles": "CC(=O)Nc1cc(C(=O)Nc2cc(C(=O)Nc3cc(C(=O)NCCCN(C)C)n(C)c3)n(CCCCNCCN(CCN)CCN)c2)n(C)c1", "note": "[Compound 6b]", "values": [{"measurement": "Q' (static quenching term of DNA:Ht:L complex)", "result": "0.64 and 0.64 ± 0.046"}]}]}
